No constants are given. Whether binding was seen depends on the method and setting. In cells and extracts the contact can be indirect. A yes stands for co-enrichment or nearness to the bait. Other partners may have been found.
B1: DNA replication licensing factor MCM3 (protein, UniProt P25205 1-808)
chain: MAGTVVLDDVELREAQRDYLDFLDDEEDQGIYQSKVRELISDNQYRLIVNVNDLRRKNEKRANRLLNNAFEELVAFQRALKDFVASIDATYAKQYEEFYVGLEGSFGSKHVSPRTLTSCFLSCVVCVEGIVTKCSLVRPKVVRSVHYCPATKKTIERRYSDLTTLVAFPSSSVYPTKDEENNPLETEYGLSVYKDHQTITIQEMPEKAPAGQLPRSVDVILDDDLVDKAKPGDRVQVVGTYRCLPGKKGGYTSGTFRTVLIACNVKQMSKDAQPSFSAEDIAKIKKFSKTRSKDIFDQLAKSLAPSIHGHDYVKKAILCLLLGGVERDLENGSHIRGDINILLIGDPSVAKSQLLRYVLCTAPRAIPTTGRGSSGVGLTAAVTTDQETGERRLEAGAMVLADRGVVCIDEFDKMSDMDRTAIHEVMEQGRVTIAKAGIHARLNARCSVLAAANPVYGRYDQYKTPMENIGLQDSLLSRFDLLFIMLDQMDPEQDREISDHVLRMHRYRAPGEQDGDAMPLGSAVDILATDDPNFSQEDQQDTQIYEKHDNLLHGTKKKKEKMVSAAFMKKYIHVAKIIKPVLTQESATYIAEEYSRLRSQDSMSSDTARTSPVTARTLETLIRLATAHAKARMSKTVDLQDAEEAVELVQYAYFKKVLEKEKKRKKRSEDESETEDEEEKSQEDQEQKRKRRKTRQPDAKDGDSYDPYDFSDTEEEMPQVHTPKTADSQETKESQKVELSESRLKAFKVALLDVFREAHAQSIGMNRLTESINRDSEEPFSSVEIQAALSKMQDDNQVMVSEGIIFLI
B2: Isoform 2 of Nucleolar RNA helicase 2 (protein, UniProt Q9NR30-2 1-715)
chain: MNSPKSKKAKKKEEPSQNDISPKTKSLRKKKEPIEKKVVSSKTKKVTKNEEPSEEEIDAPKPKKMKKEKEMNGETREKSPKLKNGFPHPEPDCNPSEAASEESNSEIEQEIPVEQKEGAFSNFPISEETIKLLKGRGVTFLFPIQAKTFHHVYSGKDLIAQARTGTGKTFSFAIPLIEKLHGELQDRKRGRAPQVLVLAPTRELANQVSKDFSDITKKLSVACFYGGTPYGGQFERMRNGIDILVGTPGRIKDHIQNGKLDLTKLKHVVLDEVDQMLDMGFADQVEEILSVAYKKDSEDNPQTLLFSATCPHWVFNVAKKYMKSTYEQVDLIGKKTQKTAITVEHLAIKCHWTQRAAVIGDVIRVYSGHQGRTIIFCETKKEAQELSQNSAIKQDAQSLHGDIPQKQREITLKGFRNGSFGVLVATNVAARGLDIPEVDLVIQSSPPKDVESYIHRSGRTGRAGRTGVCICFYQHKEEYQLVQVEQKAGIKFKRIGVPSATEIIKASSKDAIRLLDSVPPTAISHFKQSAEKLIEEKGAVEALAAALAHISGATSVDQRSLINSNVGFVTMILQCSIEMPNISYAWKELKEQLGEEIDSKVKGMVFLKGKLGVCFDVPTASVTEIQEKWHDSRRWQLSVATEQPELEGPREGYGGFRGQREGSRGFRGQRDGNRRFRGQREGSRGPRGQRSGGGNKSNRSQNKGQKRSFSKAFGQ
B3: Ribosomal RNA methyltransferase NOP2 (protein, UniProt P46087 1-812)
chain: MGRKLDPTKEKRGPGRKARKQKGAETELVRFLPAVSDENSKRLSSRARKRAAKRRLGSVEAPKTNKSPEAKPLPGKLPKGISAGAVQTAGKKGPQSLFNAPRGKKRPAPGSDEEEEEEDSEEDGMVNHGDLWGSEDDADTVDDYGADSNSEDEEEGEALLPIERAARKQKAREAAAGIQWSEEETEDEEEEKEVTPESGPPKVEEADGGLQINVDEEPFVLPPAGEMEQDAQAPDLQRVHKRIQDIVGILRDFGAQREEGRSRSEYLNRLKKDLAIYYSYGDFLLGKLMDLFPLSELVEFLEANEVPRPVTLRTNTLKTRRRDLAQALINRGVNLDPLGKWSKTGLVVYDSSVPIGATPEYLAGHYMLQGASSMLPVMALAPQEHERILDMCCAPGGKTSYMAQLMKNTGVILANDANAERLKSVVGNLHRLGVTNTIISHYDGRQFPKVVGGFDRVLLDAPCSGTGVISKDPAVKTNKDEKDILRCAHLQKELLLSAIDSVNATSKTGGYLVYCTCSITVEENEWVVDYALKKRNVRLVPTGLDFGQEGFTRFRERRFHPSLRSTRRFYPHTHNMDGFFIAKFKKFSNSIPQSQTGNSETATPTNVDLPQVIPKSENSSQPAKKAKGAAKTKQQLQKQQHPKKASFQKLNGISKGADSELSTVPSVTKTQASSSFQDSSQPAGKAEGIREPKVTGKLKQRSPKLQSSKKVAFLRQNAPPKGTDTQTPAVLSPSKTQATLKPKDHHQPLGRAKGVEKQQLPEQPFEKAAFQKQNDTPKGPQPPTVSPIRSSRPPPAKRKKSQSRGNSQLLLS
B4: DNA replication licensing factor MCM5 (protein, UniProt P33992 1-734)
chain: MSGFDDPGIFYSDSFGGDAQADEGQARKSQLQRRFKEFLRQYRVGTDRTGFTFKYRDELKRHYNLGEYWIEVEMEDLASFDEDLADYLYKQPAEHLQLLEEAAKEVADEVTRPRPSGEEVLQDIQVMLKSDASPSSIRSLKSDMMSHLVKIPGIIIAASAVRAKATRISIQCRSCRNTLTNIAMRPGLEGYALPRKCNTDQAGRPKCPLDPYFIMPDKCKCVDFQTLKLQELPDAVPHGEMPRHMQLYCDRYLCDKVVPGNRVTIMGIYSIKKFGLTTSRGRDRVGVGIRSSYIRVLGIQVDTDGSGRSFAGAVSPQEEEEFRRLAALPNVYEVISKSIAPSIFGGTDMKKAIACLLFGGSRKRLPDGLTRRGDINLLMLGDPGTAKSQLLKFVEKCSPIGVYTSGKGSSAAGLTASVMRDPSSRNFIMEGGAMVLADGGVVCIDEFDKMREDDRVAIHEAMEQQTISIAKAGITTTLNSRCSVLAAANSVFGRWDETKGEDNIDFMPTILSRFDMIFIVKDEHNEERDVMLAKHVITLHVSALTQTQAVEGEIDLAKLKKFIAYCRVKCGPRLSAEAAEKLKNRYIIMRSGARQHERDSDRRSSIPITVRQLEAIVRIAEALSKMKLQPFATEADVEEALRLFQVSTLDAALSGTLSGVEGFTSQEDQEMLSRIEKQLKRRFAIGSQVSEHSIIKDFTKQKYPEHAIHKVLQLMLRRGEIQHRMQRKVLYRLK
B5: Nucleolar protein 58, Q9Y2X3 1-529 (protein)
chain: MLVLFETSVGYAIFKVLNEKKLQEVDSLWKEFETPEKANKIVKLKHFEKFQDTAEALAAFTALMEGKINKQLKKVLKKIVKEAHEPLAVADAKLGGVIKEKLNLSCIHSPVVNELMRGIRSQMDGLIPGVEPREMAAMCLGLAHSLSRYRLKFSADKVDTMIVQAISLLDDLDKELNNYIMRCREWYGWHFPELGKIISDNLTYCKCLQKVGDRKNYASAKLSELLPEEVEAEVKAAAEISMGTEVSEEDICNILHLCTQVIEISEYRTQLYEYLQNRMMAIAPNVTVMVGELVGARLIAHAGSLLNLAKHAASTVQILGAEKALFRALKSRRDTPKYGLIYHASLVGQTSPKHKGKISRMLAAKTVLAIRYDAFGEDSSSAMGVENRAKLEARLRTLEDRGIRKISGTGKALAKTEKYEHKSEVKTYDPSGDSTLPTCSKKRKIEQVDKEDEITEKKAKKAKIKVKVEEEEEEKVAEEEETSVKKKKKRGKKKHIKEEPLSEEEPCTSTAIASPEKKKKKKKKRENED

The chains behind the UniProt entries cited, without tags or fusion partners.
UniProt Q15910: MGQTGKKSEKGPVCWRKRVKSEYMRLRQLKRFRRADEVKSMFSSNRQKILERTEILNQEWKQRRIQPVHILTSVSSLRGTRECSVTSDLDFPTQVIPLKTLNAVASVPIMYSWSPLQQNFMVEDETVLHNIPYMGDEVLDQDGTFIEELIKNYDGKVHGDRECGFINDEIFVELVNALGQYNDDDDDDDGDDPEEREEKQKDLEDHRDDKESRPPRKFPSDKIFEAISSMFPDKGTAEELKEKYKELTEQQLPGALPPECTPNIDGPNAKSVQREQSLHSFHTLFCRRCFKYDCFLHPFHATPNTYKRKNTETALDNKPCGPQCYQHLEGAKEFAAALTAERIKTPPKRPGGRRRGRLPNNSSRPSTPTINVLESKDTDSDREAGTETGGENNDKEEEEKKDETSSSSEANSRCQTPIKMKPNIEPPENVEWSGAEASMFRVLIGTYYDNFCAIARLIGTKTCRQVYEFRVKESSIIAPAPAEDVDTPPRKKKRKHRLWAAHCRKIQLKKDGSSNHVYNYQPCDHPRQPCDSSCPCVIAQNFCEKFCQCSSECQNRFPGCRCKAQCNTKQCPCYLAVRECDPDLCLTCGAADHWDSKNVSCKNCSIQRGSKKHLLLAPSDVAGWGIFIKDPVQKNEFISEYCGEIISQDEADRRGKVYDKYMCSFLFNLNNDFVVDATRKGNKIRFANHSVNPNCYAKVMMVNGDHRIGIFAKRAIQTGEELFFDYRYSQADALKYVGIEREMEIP
UniProt P11142: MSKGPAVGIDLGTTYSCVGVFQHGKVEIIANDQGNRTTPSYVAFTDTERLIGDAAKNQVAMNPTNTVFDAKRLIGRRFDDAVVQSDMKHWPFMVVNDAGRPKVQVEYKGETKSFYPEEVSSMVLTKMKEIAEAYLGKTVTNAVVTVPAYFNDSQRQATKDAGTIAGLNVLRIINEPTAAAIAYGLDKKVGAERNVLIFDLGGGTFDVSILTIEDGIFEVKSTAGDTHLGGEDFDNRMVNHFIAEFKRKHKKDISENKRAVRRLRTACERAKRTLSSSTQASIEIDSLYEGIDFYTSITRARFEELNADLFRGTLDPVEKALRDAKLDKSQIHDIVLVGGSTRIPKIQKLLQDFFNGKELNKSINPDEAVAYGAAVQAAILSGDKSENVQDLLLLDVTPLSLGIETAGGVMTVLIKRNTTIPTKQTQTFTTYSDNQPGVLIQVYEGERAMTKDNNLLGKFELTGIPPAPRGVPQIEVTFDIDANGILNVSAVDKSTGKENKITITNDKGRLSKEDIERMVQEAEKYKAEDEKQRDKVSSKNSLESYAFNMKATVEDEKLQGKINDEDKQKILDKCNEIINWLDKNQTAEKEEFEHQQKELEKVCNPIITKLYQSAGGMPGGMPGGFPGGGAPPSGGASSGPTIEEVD
UniProt P11387: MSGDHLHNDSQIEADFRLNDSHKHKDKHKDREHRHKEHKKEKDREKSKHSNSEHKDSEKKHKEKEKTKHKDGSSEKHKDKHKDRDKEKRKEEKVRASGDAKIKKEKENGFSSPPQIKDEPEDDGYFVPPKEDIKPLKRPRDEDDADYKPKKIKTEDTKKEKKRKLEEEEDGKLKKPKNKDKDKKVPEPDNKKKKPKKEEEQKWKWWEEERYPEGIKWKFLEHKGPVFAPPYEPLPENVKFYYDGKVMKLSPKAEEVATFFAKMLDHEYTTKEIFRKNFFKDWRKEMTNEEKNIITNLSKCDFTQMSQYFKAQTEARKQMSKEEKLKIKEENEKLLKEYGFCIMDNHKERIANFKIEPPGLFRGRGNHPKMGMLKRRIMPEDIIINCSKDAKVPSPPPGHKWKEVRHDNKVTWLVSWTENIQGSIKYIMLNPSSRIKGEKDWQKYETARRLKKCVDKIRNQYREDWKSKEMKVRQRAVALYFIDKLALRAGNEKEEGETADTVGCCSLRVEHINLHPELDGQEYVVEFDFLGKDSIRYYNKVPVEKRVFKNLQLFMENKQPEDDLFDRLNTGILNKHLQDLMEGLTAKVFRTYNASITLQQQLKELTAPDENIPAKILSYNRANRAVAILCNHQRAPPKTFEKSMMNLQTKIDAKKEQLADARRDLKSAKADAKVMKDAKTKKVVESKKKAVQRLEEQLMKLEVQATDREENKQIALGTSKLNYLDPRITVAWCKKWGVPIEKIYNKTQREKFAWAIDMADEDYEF
UniProt P13010: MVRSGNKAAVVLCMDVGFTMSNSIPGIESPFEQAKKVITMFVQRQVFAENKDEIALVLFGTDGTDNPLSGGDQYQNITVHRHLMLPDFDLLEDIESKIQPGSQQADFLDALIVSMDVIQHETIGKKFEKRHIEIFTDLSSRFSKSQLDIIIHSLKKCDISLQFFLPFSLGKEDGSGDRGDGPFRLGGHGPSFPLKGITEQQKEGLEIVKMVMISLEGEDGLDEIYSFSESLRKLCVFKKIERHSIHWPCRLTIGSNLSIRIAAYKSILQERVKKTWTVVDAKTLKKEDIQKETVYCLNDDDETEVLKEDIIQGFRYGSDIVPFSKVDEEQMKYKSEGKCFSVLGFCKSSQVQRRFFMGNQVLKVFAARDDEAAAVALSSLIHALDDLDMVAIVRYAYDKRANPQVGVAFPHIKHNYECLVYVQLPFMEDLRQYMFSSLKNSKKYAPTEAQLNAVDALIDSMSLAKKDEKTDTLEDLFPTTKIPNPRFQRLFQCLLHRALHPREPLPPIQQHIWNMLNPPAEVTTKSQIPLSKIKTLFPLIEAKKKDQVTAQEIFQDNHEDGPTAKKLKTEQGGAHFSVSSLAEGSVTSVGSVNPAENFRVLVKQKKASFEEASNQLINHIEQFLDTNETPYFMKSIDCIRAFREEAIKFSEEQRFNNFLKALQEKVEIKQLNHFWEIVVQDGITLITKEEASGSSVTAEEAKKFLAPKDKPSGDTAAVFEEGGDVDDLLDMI
UniProt O00567: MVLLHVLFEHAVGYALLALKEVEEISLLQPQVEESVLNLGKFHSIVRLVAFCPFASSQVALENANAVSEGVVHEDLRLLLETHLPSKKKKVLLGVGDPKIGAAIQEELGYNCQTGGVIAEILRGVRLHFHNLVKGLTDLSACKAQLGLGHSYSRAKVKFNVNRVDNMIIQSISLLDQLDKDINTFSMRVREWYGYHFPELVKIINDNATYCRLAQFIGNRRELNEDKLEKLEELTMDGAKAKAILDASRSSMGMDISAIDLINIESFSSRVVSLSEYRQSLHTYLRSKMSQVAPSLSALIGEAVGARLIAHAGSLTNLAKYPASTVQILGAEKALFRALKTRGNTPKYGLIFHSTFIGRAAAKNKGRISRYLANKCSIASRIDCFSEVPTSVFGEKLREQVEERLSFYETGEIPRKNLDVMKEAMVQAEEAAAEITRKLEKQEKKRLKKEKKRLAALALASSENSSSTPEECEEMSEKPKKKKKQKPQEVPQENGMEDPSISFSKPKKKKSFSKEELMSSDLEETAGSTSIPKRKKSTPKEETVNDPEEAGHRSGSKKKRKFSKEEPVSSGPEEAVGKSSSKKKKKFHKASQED
UniProt Q9Y483: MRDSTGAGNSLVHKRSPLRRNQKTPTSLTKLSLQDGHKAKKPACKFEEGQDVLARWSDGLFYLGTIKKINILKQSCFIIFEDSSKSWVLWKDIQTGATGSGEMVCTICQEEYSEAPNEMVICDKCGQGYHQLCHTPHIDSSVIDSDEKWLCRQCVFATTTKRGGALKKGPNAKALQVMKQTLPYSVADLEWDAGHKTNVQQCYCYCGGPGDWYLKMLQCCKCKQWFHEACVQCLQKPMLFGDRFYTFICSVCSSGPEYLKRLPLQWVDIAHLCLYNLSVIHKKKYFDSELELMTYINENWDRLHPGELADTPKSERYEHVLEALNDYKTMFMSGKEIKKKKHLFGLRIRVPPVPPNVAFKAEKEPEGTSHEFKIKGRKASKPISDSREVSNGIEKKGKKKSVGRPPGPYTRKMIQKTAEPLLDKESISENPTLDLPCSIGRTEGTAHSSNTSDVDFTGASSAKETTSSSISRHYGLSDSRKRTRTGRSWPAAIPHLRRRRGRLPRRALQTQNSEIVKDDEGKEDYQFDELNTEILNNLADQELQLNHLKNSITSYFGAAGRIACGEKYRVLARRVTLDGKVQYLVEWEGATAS
UniProt P08238: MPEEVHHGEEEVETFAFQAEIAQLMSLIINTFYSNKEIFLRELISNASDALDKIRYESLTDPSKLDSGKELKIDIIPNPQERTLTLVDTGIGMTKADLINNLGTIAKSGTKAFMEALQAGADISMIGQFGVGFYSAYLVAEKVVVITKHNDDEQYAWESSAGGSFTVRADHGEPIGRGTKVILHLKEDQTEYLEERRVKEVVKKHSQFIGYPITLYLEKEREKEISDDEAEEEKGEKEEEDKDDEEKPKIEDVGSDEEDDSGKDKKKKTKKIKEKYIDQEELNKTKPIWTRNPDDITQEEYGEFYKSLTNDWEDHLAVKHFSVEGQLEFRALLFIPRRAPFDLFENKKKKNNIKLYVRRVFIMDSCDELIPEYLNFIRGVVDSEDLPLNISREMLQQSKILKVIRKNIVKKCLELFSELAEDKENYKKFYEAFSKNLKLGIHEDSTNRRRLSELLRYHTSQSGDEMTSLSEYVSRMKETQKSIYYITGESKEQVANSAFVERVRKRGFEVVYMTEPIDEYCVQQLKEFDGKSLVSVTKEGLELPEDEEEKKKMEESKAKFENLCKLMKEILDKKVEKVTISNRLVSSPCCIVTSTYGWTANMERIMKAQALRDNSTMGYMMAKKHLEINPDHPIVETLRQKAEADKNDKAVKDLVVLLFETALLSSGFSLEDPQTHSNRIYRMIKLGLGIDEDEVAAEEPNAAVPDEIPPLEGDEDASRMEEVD

Target: Histone-lysine N-methyltransferase EZH2 (human (endogenous in Jurkat)) (UniProt Q15910)
Assay: affinity purification with mass spectrometry; nuclear protein fraction of Jurkat T cells; anti-EZH2 antibody cross-linked (disuccinimidyl suberate) to protein A/G magnetic beads, overnight, washed three times with lysis buffer (150 mM NaCl, 1.0% NP-40, 50 mM Tris-Cl pH 7.4); Coomassie-stained bands cut and analysed by MS
Conditions: not given

Molecule | binding
Heat shock cognate 70 protein (from UniProt P11142 1-646) | binds
DNA topoisomerase 1 (from UniProt P11387 1-765) | binds
X-ray repair cross-complementing protein 5 (from UniProt P13010 1-732) | binds
Nucleolar protein 56 (from UniProt O00567 1-594) | binds
Metal-response element-binding transcription factor 2 (from UniProt Q9Y483 1-593) | binds
Heat shock protein 90-beta (from UniProt P08238 1-724) | binds
B1 | binds
B2 | binds
B3 | binds
B4 | binds

Target: Histone-lysine N-methyltransferase EZH2 (human (endogenous in Jurkat)), Q15910
Assay: as above
Conditions: remark: other sources report otherwise

Molecule | binding
B5 | binds

— PMC4973345
